Measurements reported in US20170066829A1 (published 2017).

Target: Ape's ERBB2 (poly-histidine tagged) (Ape)
Assay: ELISA, coated antigen, HRP-conjugated antibody, OD 450 nm

binding: binds
B1: Hersintuzumab (antibody, V domains shown)
VH: EVKLVESGGGLVKPGGSLRLSCATSGFSFSSYYMYWVRQAPGKRLEWVAYISSGSEIYYSDSVKGRFTISRDSAKNTLYLQMNSLRAEDTAVYYCARLGDDGMDVWGQGTTVTVSS
VL: DIVMTQSPSSLSASVGDRVTITCRASQNVRTAVAWFQQKPGKAPKALIYLASNRHTGVPDRFTGSGSGTEFTLTISNLQPEDFATYFCLQHNSYPLTFGGGTKVEIK
notes: also called humanized anti-HER2 antibody; humanized monoclonal anti-HER2 antibody

These are yes or no findings as the source states them, for the method shown. Binding calls can cover weak binding; strength is not graded here.
